## Library screen at single concentrations

Sequences of proteins named here, by UniProt entry; tags and fusion partners are left off. Residues count along the entry.
UniProt I6X8D2, whole entry: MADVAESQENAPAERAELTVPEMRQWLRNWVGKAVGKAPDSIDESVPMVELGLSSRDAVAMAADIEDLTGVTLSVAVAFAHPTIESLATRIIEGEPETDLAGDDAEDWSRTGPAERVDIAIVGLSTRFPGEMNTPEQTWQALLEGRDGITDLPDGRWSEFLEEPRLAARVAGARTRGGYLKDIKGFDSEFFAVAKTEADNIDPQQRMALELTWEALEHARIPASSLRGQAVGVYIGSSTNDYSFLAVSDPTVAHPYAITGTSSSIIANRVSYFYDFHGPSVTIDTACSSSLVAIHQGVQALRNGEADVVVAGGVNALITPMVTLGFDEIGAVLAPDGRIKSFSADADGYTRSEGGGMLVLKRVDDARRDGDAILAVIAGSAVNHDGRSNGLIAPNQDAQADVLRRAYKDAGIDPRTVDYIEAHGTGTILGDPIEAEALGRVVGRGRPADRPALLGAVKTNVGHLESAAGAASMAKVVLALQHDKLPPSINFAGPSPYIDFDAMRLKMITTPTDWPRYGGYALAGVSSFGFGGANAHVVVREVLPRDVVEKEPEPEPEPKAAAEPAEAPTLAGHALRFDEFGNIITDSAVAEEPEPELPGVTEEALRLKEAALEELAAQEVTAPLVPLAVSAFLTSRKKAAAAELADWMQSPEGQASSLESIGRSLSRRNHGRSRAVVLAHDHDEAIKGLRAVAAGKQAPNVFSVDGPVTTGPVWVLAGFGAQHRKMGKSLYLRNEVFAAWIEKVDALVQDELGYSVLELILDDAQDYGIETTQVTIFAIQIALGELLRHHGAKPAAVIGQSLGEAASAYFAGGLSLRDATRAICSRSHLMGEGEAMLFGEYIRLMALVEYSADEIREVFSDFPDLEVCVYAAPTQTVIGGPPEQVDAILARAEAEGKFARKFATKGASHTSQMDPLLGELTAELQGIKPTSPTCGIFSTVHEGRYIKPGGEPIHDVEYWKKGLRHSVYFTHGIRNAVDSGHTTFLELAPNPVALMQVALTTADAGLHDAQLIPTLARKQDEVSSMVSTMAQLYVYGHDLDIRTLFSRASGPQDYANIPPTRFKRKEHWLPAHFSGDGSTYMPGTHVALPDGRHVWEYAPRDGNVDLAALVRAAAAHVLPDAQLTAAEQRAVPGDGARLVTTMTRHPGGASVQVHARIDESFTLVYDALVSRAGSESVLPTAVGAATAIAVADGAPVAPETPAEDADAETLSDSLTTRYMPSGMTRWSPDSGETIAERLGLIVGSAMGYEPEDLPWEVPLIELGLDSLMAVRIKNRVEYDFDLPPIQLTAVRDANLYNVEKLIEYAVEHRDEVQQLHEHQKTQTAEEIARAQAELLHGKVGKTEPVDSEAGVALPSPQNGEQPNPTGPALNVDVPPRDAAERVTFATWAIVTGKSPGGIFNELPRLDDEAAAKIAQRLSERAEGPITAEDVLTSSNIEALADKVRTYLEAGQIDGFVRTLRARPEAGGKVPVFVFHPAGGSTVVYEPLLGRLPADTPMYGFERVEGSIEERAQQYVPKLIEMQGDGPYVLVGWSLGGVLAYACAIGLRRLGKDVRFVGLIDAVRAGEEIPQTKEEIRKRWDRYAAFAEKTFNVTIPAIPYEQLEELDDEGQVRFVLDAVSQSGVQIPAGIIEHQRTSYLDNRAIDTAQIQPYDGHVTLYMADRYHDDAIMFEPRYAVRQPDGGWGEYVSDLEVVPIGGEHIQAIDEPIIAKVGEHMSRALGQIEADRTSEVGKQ
UniProt A4I591, 1-473: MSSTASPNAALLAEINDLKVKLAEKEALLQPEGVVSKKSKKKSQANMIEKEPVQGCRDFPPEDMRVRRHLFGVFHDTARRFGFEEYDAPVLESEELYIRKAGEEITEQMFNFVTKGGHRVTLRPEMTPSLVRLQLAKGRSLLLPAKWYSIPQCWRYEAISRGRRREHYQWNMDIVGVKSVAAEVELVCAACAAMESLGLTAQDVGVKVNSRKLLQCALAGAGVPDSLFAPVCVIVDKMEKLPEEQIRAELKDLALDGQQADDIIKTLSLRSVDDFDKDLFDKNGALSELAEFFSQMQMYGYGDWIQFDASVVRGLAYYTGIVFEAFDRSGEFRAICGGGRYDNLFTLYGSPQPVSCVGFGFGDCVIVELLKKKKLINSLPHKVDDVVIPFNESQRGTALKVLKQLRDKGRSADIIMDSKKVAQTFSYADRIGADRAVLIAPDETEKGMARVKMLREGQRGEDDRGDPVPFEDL
UniProt P9WNZ1, whole entry: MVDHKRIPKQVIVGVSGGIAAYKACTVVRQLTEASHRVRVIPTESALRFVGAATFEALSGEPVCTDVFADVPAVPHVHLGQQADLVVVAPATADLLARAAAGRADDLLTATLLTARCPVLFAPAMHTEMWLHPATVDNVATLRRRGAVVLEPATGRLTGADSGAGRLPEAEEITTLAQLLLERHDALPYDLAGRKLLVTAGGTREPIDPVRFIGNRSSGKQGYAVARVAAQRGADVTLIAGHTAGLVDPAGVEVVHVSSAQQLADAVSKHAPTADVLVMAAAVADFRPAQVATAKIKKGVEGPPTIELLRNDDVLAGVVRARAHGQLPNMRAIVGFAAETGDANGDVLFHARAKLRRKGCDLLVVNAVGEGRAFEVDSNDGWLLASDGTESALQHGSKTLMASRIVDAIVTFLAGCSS

Source: ChEMBL document CHEMBL3988442, “University of Dundee, Small-Polar-MMV Screening Library” (2021).

Results are given as percent effect. The record does not define 0% and 100%; most values in the screen are far below 50% and negative numbers occur (in some assays of this library far below -100). Compounds were drawn at random from those tested, without regard to their results. A dash means the value is not listed here; it may have been measured.

A: 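Enzyme assay of the thioesterase domain of polyketide synthase 13; the read-out is not stated. Target: Polyketide synthase Pks13, Mycobacterium tuberculosis (UniProt I6X8D2). Tested at 30 µM. Higher reads as stronger inhibition (inferred from which compounds were picked for retests). About 67,000 compounds were tested under these conditions; 0.46% (about 300) showed 50% or more at least once.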
B: 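Enzyme assay of histidyl-tRNA synthetase; the read-out is not stated. Target: Histidine-tRNA ligase, Leishmania infantum (UniProt A4I591). Concentration: 30 µM. The record gives no direction; compounds that gave an IC50 in retests scored well above the rest, so higher reads as stronger inhibition. The assay is labelled LdHisRS but filed under L. infantum. Size under these conditions: about 69,000 compounds, about 410 of them at 50% or above in at least one test.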
C: 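Coenzyme A biosynthesis protein CoaBC, Mycobacterium tuberculosis (UniProt P9WNZ1). Enzyme assay of CoaBC with a phosphate dye (Biomol Green) read at 650 nm. Compounds at 30 µM. Direction is inferred from only a few compounds that gave an IC50; most scored high, so higher reads as stronger inhibition. Most strong results did not repeat in a second test. Size under these conditions: about 67,000 compounds, about 40 of them at 50% or above in at least one test.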

SMILES	A	B	C
O=C(NCCn1cccc1)C(c1cccnc1)N1CCCC1 (configuration not stated)	-16.49	12.82	1.811
CC(=O)N1CCOC(CNC(=O)c2cccc(CCC(C)(C)O)c2)C1 (configuration not stated)	-25.12	-82.09	-2.008
O=C(CCn1nc(C(F)(F)F)c(Cl)c1C1CC1)NN1CCOCC1	5.502	17.5	4.177
CCc1nc(CN(C)C(=O)CSC)no1	-13.15	22.35	10.36
CCn1c(CN2CCC(O)(c3ccc4c(c3)OCO4)CC2)cnc1SC	-6.399	-1.439	2.153
CCN1CCOC(CNCc2ccccc2OCC(=O)N(C)C)C1 (configuration not stated)	-14.96	-28.79	3.172
COCc1cc(N(C)Cc2ccccn2)nc(C(C)(C)C)n1	-19.04	3.896	2.532
CN1CCN([C@@H]2CN(C(=O)c3ccsc3)[C@@H]3CCCO[C@H]23)CC1	-6.426	13.16	1.833
COc1ccccc1CC(=O)NC(C)c1nc2cccnc2n1C(C)C (configuration not stated)	7.669	8.966	0.1236
Cc1ccccc1C(=O)NCc1ccnc(N(C)C)c1	-1.659	5.357	0.6818
Cc1noc(C)c1CN(C)C(=O)CN1CC(c2ccccc2)CC1=O (configuration not stated)	-23.83	1.493	-10.04
CCC(NC(=O)NCc1cc(Cl)ccc1OC)c1noc(C)n1 (configuration not stated)	-3.529	25.71	-
Cc1cc(C)n(C2CCN(Cc3c(-c4cc(C)on4)nn(C)c3Cl)C2)n1 (configuration not stated)	-21.85	11.11	1.19
Cc1ncsc1CCN(C)C1CCN(c2ncnc3[nH]cnc23)CC1	-30.45	23.08	-0.8
Cc1cccc(C2(CNC(=O)CO)CCCC2)c1	-25.26	11.86	2.1
CC(C)NC(=O)[C@@H](NC(=O)N1CCN(c2ccc(Cl)cc2)CC1)C(C)C	-0.7969	3.81	-2.632
O=C(Nc1nncs1)N1CCCN(C2CCCC2)CC1	-21.46	-2	1.485
CN1CCN(c2ccc(NCc3ccsc3)cn2)CC1	-0.6989	31.18	2.558
Cc1n[nH]c(C2CN(C(=O)c3scnc3C)CCO2)n1 (configuration not stated)	4.302	3.2	0
CC(C)(C)OC(=O)N1CSC[C@@H]1C(=O)NCc1ccsc1	-32.87	17.24	5.353
COCCN(CCOC)c1ncccc1Cl	-28.88	5.983	4.622
COc1ccc2c(c1)OCC(Cc1ccc(C)nc1N)C2 (configuration not stated)	-34.53	-9.091	-11.24
CC(C)n1ccc(C(=O)N2CCCC(n3cncn3)C2)n1 (configuration not stated)	-0.09889	3.509	-13.29
CN(CCCc1nccn1C)C(=O)C1COc2ccccc2C1 (configuration not stated)	0.2599	0	2.263
Cc1nc2c(c(C)c1CC(=O)NCc1cccc(C#N)c1)c(=O)[nH]n2C	-10.03	13.33	4.103
O=S1(=O)CCC(N2CCN(c3cc(C(F)(F)F)ccn3)CC2)C1 (configuration not stated)	-16.58	18.31	-2.746
COc1ccccc1-c1ccnc2nc(N3CCCCC3)[nH]c(=O)c12	71.69	16.55	6.842
CC(NS(=O)(=O)CCCC#N)c1cccc(-n2cccn2)c1 (configuration not stated)	-	14.29	-1.138
CSC(C)C(=O)Nc1ccnn1-c1ccccc1C (configuration not stated)	18.64	12.36	-10.94
CN1CCCC1CNC(=O)CCOc1ccc(Cl)cc1 (configuration not stated)	-19.99	10.71	4.689
CN(C)CCOC[C@H]1CC[C@H]2[C@H](CCN2C(=O)c2ccoc2)O1	-4.884	13.76	-11.56
CC(=O)N1CCCC1CCc1ccnc(-c2cncnc2)c1 (configuration not stated)	-6.31	2.797	-5.085
Cc1nnc2n1CCN(CCOc1ccccc1)C2	-5.507	2.703	4.439
O=c1[nH][nH]cc1-c1ccnc(NCCc2cccnc2)n1	28.39	20	1.325
CC(C)c1nn(C)c(N(C)C)c1CNCCC(=O)NC1CCCC1	-7.457	31.82	12.19
Cc1cnn(CC2CCCN2Cc2noc(-c3ccccc3)n2)c1 (configuration not stated)	-15.6	9.565	3.69
c1ccc2sc(N3CCCN(c4ncnc5c4CCNC5)CC3)nc2c1	-52.22	57.14	-
O=C1OC2(CCNCC2)CN1CC(=O)N1CCCC1c1nccs1 (configuration not stated)	-35.82	9.836	-8.155
Cc1cncc(C2CCCN(C(=O)c3cn(C)nc3C)C2)n1 (configuration not stated)	2.435	4.348	1.214
COc1c(CNC(c2ccccc2)c2nccn2C)c(C)nn1C (configuration not stated)	-21.28	16.07	0.1267
Cc1ccc(N2CCCC(N(C)Cc3cc(C)on3)C2)nn1 (configuration not stated)	-1.774	12.9	1.353
CC(=O)N(Cc1ncc(C)o1)C1CCN(Cc2nccn2C)C1 (configuration not stated)	-	14.68	3.861
O=C(NCC1CCCO1)c1cc(-c2ccc3c(c2)CCO3)n[nH]1 (configuration not stated)	7.606	13.16	2.525
CC(C)N1CCC(Nc2ccn(CCC#N)n2)C1=O (configuration not stated)	-0.1853	0	0
Cc1ccc(S(=O)(=O)NC2CC2)cc1C	-10.28	0.9615	0.4219
CN(Cc1cccc(F)c1)C(=O)CS(=O)(=O)Cc1ccc(Cl)c(Cl)c1	24.5	-8.264	-3.24
Cc1cc(Cc2ccc(S(=O)(=O)N3CCCC3)cc2)c(=O)[nH]n1	-7.874	18.42	-0.2532
Cc1cccnc1CN1CCC(c2nnc(Cn3cccn3)n2C)CC1	4.504	18.27	-1.266

5 of the entries, repeated:

{"smiles": "COCc1cc(N(C)Cc2ccccn2)nc(C(C)(C)C)n1", "A": -19.04, "B": 3.896, "C": 2.532}
{"smiles": "CN(CCCc1nccn1C)C(=O)C1COc2ccccc2C1", "stereo": "configuration not stated", "A": 0.2599, "B": 0, "C": 2.263}
{"smiles": "Cc1ccccc1C(=O)NCc1ccnc(N(C)C)c1", "A": -1.659, "B": 5.357, "C": 0.6818}
{"smiles": "CN(C)CCOC[C@H]1CC[C@H]2[C@H](CCN2C(=O)c2ccoc2)O1", "A": -4.884, "B": 13.76, "C": -11.56}
{"smiles": "Cc1ccc(S(=O)(=O)NC2CC2)cc1C", "A": -10.28, "B": 0.9615, "C": 0.4219}